Source: PubChem BioAssay AID504467 (National Center for Advancing Translational Sciences (NCATS), 2011)
The campaign covered roughly 330,000 compounds. About 7,700 (2.3%) were called active. The shares of active, inactive and inconclusive entries below differ from those in the screen. The call rests on the fitted dose curve; in most records, active means well fitted inhibition curve with a large enough effect; inconclusive means small, poorly fitted or top-dose-only effect, or effect the other way; inactive means flat fitted curve, though single readings scatter. A potency beside an inconclusive call is a rough fit, not a confirmed value.

Assay: qHTS screen for small molecules that inhibit ELG1-dependent DNA repair in human embryonic kidney (HEK293T) cells expressing luciferase-tagged ELG1; further: nearly all actives have a fitted effect of over 55% in size
Details: HEK293T ELG1-luciferase reporter, luminescence, 16 h, DNA damage induced by 5-fluorouridine; activity change, negative = inhibition: at 46.1 µM (top of the series)
How it was run: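 Quantitative HTS, concentration-response format. 2,000 cells/well co-treated with 5-fluorouridine and compound, 16 hr in 5% CO2 at 37 °C; ONE-Glo luminescence read after 30 min.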
On the % scale 0 is the no-effect control and ±100 the full control effect; potency means the concentration at half of the fitted maximal effect.

Structure (SMILES) | activity change, negative = inhibition | Potency
O=C(NCN1CCN(c2ccccc2)CC1)c1cnccn1 | inactive: -3.85% | –
CCOC(=O)N1CCC(NC(=O)CS(=O)Cc2nc(-c3ccc(Cl)cc3)oc2C)CC1 (centres undefined) | – | inconclusive: 11.6 µM [inhibitor, partial curve]
COc1ccc(Cc2nc(-c3ccccc3)no2)cc1 | – | inconclusive: 6.51 µM [activator, partial curve]
O=S(=O)(Nc1c(F)cccc1F)c1ccc(Cl)nc1 | – | inconclusive: 8.2 µM [activator, partial curve, poor fit]
CCN(CC)S(=O)(=O)c1cccc(C(=O)Nc2ccc(C#N)cc2)c1 | – | inconclusive: 7.31 µM [inhibitor, partial curve, poor fit]
Cc1ccc2nc(Cl)c3nnnn3c2c1 | – | inconclusive: 29.1 µM [inhibitor, single point]
Cc1nc(NS(=O)(=O)c2ccccc2)sc1C(C)(C)C | inactive: 6.09% | –
COc1ccc(C(=O)N/C(=C\c2cccc3ccccc23)C(=O)N2CCN(C)CC2)cc1OC | – | inconclusive: 29.1 µM [inhibitor, single point]
Cc1ccccc1NC(=O)c1nc2nccc(C)n2n1 | – | inconclusive: 14.6 µM [activator, partial curve]
Cc1cccc(OCC(=O)NCCNC(=O)c2ccncc2)c1 | inactive: -0.631% | –
CCOC(=O)c1cc(C(C)C)sc1NC(=O)COC(=O)CCS(=O)(=O)c1ccccc1 | inactive: -6.18% | –
O=C(Nc1nc(-c2ccccc2)cs1)c1ccco1 | – | inconclusive: 8.2 µM [activator, partial curve]
Oc1ccccc1/C=N/Nc1cc(N2CCCC2)nc(N2CCCC2)n1 | – | inconclusive: 20.6 µM [inhibitor, single point]
Cc1ccc(S(=O)(=O)NC(=O)c2cccc(C)c2)cc1 | – | inconclusive: 20.6 µM [activator, partial curve, poor fit]
O=C(N/N=C/c1ccc([N+](=O)[O-])cc1)c1cccs1 | – | inconclusive: 16.4 µM [activator, partial curve]
Cc1[nH]n(-c2ccccc2)c(=O)c1N=Nc1c(Cl)cccc1Cl | inactive: 4.64% | –
COc1ccccc1C(CNC(=O)c1cccc(S(=O)(=O)NCc2ccccc2)c1)N(C)C (centres undefined) | inactive: 0.533% | –
NC(=O)c1nsc(C(=O)N(CC(=O)NC2CCCCC2)c2ccc(Cl)cc2)c1N | inactive: -5.5% | –
CCCCSc1nnc(CSc2ncccn2)n1C | inactive: 8.24% | –
COC(=O)c1ccc(-c2nc(-c3cccs3)no2)cc1 | – | inconclusive: 0.259 µM [activator, full curve, poor fit]
Clc1ccc2ccc3cccnc3c2n1 | inactive: 7.01% | –
O=C(COCc1cc(-c2ccc3c(c2)OCO3)on1)N1CCN(c2cccc(Cl)c2)CC1 | – | inconclusive: 29.1 µM [activator, single point]
C/C(=N\Nc1nccnc1Cl)c1ccc(O)c(C)c1 | – | inconclusive: 35.5 µM [activator, single point]
C=CCNC(=S)Nc1ccc2nc(C)c(C)nc2c1 | – | inconclusive: 20.6 µM [activator, partial curve]
O=C(Oc1ccc(-c2nnco2)cc1)C1CCN(C(=O)c2ccc(F)cc2)CC1 | inactive: 15.3% | –

Structure (SMILES) | activity change, negative = inhibition | Potency
O=C(NC1CCC(=O)N(CCOc2ccccc2)CC1)OCc1ccccc1 (centres undefined) | inactive: -0.528% | –
Cc1cc(=O)oc(C)c1C(=O)N1CCN(C(c2ccccc2)c2ccccc2)CC1 | inactive: 4.1% | –
CCCCn1nnnc1SCC(=O)Nc1sc2c(c1C#N)CCCC2 | – | inconclusive: 16.4 µM [inhibitor, partial curve, poor fit]
Nc1nc(CSc2ncn[nH]2)nc(Nc2ccc(F)cc2)n1 | – | inconclusive: 23.1 µM [activator, partial curve, poor fit]
COC(=O)c1ccccc1N=Nc1c(N)[nH][nH]c1=O | inactive: -6.21% | –
O=C(C1CC1)N1CCc2cc(Br)cc(S(=O)(=O)N3CCN(c4ccccn4)CC3)c21 | inactive: -18.7% | –
CC1CCCN(Cc2nc3c(c(=O)n(C)c(=O)n3C)n2CCc2ccccc2)C1 (centres undefined) | – | inconclusive: 32.6 µM [activator, partial curve, poor fit]
COc1ccccc1NC(=O)Cn1nnc(C(=O)Nc2ccccc2)c1N | inactive: 25.4% | –
O=C(Cc1ccc(O)cc1)NC1CCCCCC1 | – | inconclusive: 20.6 µM [activator, partial curve]
CCc1nonc1NC(=O)c1oc2ccc(C)cc2c1C | – | inconclusive: 20.6 µM [activator, partial curve]
COc1cc(CN2CCN(Cc3ccc(SC)cc3)CC2)cc(OC)c1O | inactive: -8.04% | –
CCOC(=O)CSc1nc(N)nc(C)c1Cl | inactive: 10.3% | –
O=C(CSc1nnc(NC(=O)C2CC2)s1)NCc1ccc(F)cc1 | inactive: -5.5% | –
COc1ccc(-n2ncc3c2CC(C)(C)CC3NC(=O)CSc2ccccn2)cc1 (centres undefined) | – | inconclusive: 29.1 µM [inhibitor, single point]
CC1CCN(C(=O)c2scc3c2OCCO3)CC1 | – | active: 18.4 µM
Cc1ccccc1OCC(=O)Nc1cccc(N(C)S(C)(=O)=O)c1 | – | inconclusive: 8.2 µM [activator, partial curve, poor fit]
O=C(NC1CCCc2c1cnn2-c1ccc(F)cc1F)c1ccccc1N1CCOCC1 (centres undefined) | inactive: 1.51% | –
CCOc1ccc2nc(NC(=S)NCc3ccccc3)sc2c1 | – | inconclusive: 20.6 µM [activator, single point]
CCOc1ncnc2c1[nH]c1ccccc12 | – | inconclusive: 32.6 µM [inhibitor, partial curve, poor fit]
Cc1ccc(/C(=N/Nc2ncnc3ccccc23)C(=O)O)cc1 | – | inconclusive: 2.06 µM [activator, full curve]
Nc1ccc(C(=O)OCc2nc3ccccc3s2)cc1 | – | inconclusive: 29.1 µM [activator, single point]
Brc1ccccc1/C=N/Nc1ccc2ccccc2n1 | – | inconclusive: 2.31 µM [activator, full curve]
Cc1cc(NC(=O)c2ccccc2)ncc1NC(=O)c1ccco1 | – | inconclusive: 6.51 µM [activator, single point]
COc1ccc(N(CC(=O)NCc2ccco2)S(C)(=O)=O)cc1OC | – | inconclusive: 18.4 µM [activator, single point]

A stretch of the results above, for reference:
Structure (SMILES) | activity change, negative = inhibition | Potency
Cc1[nH]n(-c2ccccc2)c(=O)c1N=Nc1c(Cl)cccc1Cl | inactive: 4.64% | –
COc1ccccc1C(CNC(=O)c1cccc(S(=O)(=O)NCc2ccccc2)c1)N(C)C (centres undefined) | inactive: 0.533% | –
NC(=O)c1nsc(C(=O)N(CC(=O)NC2CCCCC2)c2ccc(Cl)cc2)c1N | inactive: -5.5% | –
CCCCSc1nnc(CSc2ncccn2)n1C | inactive: 8.24% | –
